Reference: publication PMC6863843

What was measured:
Test in all cases: co-IP; HEK293T cells transfected with the indicated plasmids, 48 h; lysis in 20 mM Tris pH 7.4, 1.0% Triton X-100, 0.1% SDS, 150 mM NaCl, 10% glycerol; 1 μg antibody overnight at 4 °C, protein A-Sepharose; immunoblot; input 5%
[1] = molecular target: Shank3b (pEGFP-C1-mShank3 variant) (mouse)
[2] = molecular target: Shank3c (pEGFP-C1-mShank3 variant) (mouse)
[3] = molecular target: Shank3e (pEGFP-C1-mShank3 variant) (mouse)

binding [1]: binds
binding [2]: binds
binding [3]: no binding
B1: HA-tagged human Slitrk2 wild type (pDisplay-HA-hSlitrk2) (protein, UniProt Q9H156 22-845)
chain: RKTAKDICKIRCLCEEKENVLNINCENKGFTTVSLLQPPQYRIYQLFLNGNLLTRLYPNEFVNYSNAVTLHLGNNGLQEIRTGAFSGLKTLKRLHLNNNKLEILREDTFLGLESLEYLQADYNYISAIEAGAFSKLNKLKVLILNDNLLLSLPSNVFRFVLLTHLDLRGNRLKVMPFAGVLEHIGGIMEIQLEENPWNCTCDLLPLKAWLDTITVFVGEIVCETPFRLHGKDVTQLTRQDLCPRKSASDSSQRGSHADTHVQRLSPTMNPALNPTRAPKASRPPKMRNRPTPRVTVSKDRQSFGPIMVYQTKSPVPLTCPSSCVCTSQSSDNGLNVNCQERKFTNISDLQPKPTSPKKLYLTGNYLQTVYKNDLLEYSSLDLLHLGNNRIAVIQEGAFTNLTSLRRLYLNGNYLEVLYPSMFDGLQSLQYLYLEYNVIKEIKPLTFDALINLQLLFLNNNLLRSLPDNIFGGTALTRLNLRNNHFSHLPVKGVLDQLPAFIQIDLQENPWDCTCDIMGLKDWTEHANSPVIINEVTCESPAKHAGEILKFLGREAICPDSPNLSDGTVLSMNHNTDTPRSLSVSPSSYPELHTEVPLSVLILGLLVVFILSVCFGAGLFVFVLKRRKGVPSVPRNTNNLDVSSFQLQYGSYNTETHDKTDGHVYNYIPPPVGQMCQNPIYMQKEGDPVAYYRNLQEFSYSNLEEKKEEPATPAYTISATELLEKQATPREPELLYQNIAERVKELPSAGLVHYNFCTLPKRQFAPSYESRRQNQDRINKTVLYGTPRKCFVGQSKPNHPLLQAKPQSEPDYLEVLEKQTAISQL

These are yes or no findings as the source states them, for the method shown. In cells and extracts the contact can be indirect. For part of these data: Binding calls can cover weak binding; strength is not graded here. Tags and fused reporters may be left off the sequences shown.
